One series deals with HepG2 cells. In words: HepG2 cytotoxicity assay. It counts as cell-based. The following applies: HepG2 TOX50 / Pf FGAA IC50. The method in brief:
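Cell viability is measured by CellTiter-Glo luminescence. Signal is developed at room temperature and read 10 min after adding the reagent, with plates and reagent first equilibrated for 30 min.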
On to `CCN(CC)CCN(Cc1ccc(-c2ccc(C(F)(F)F)cc2)cc1)C(=O)Cn1cc(Cc2cnn(C)c2)c(=O)nc1/C=C/c1cccc(F)c1F` [TCMDC-140964], for which the Selectivity ratio is reported as 11.15. Turning to `CC(C)(CNC(=O)[C@H]1CCCN1)c1nc(-c2ccc(Cl)c(O)c2)c(-c2ccncc2)[nH]1.Cl` [TCMDC-141060], the Selectivity ratio is reported as 27.10. On to `CC(C)(CNC(=O)[C@@H]1CCCCN1)c1nc(-c2ccc(Cl)c(O)c2)c(-c2ccncc2)[nH]1.Cl` [TCMDC-141079], for which the Selectivity ratio turned out to be 24.69.

Turning to `CC1(CCN2CCC(c3c[nH]c4cnccc34)CC2)CCCc2c(Br)cccc2C1=O.Cl` (stereo not shown) [TCMDC-141171], the Selectivity ratio is recorded as 3.03.

`CC(C)(CN)c1cc(-c2ccc(Cl)c(O)c2)c(-c2ccncc2)o1.Cl` [TCMDC-141334]: the Selectivity ratio is 23.95. As to `CN1CCN(c2ccc(Nc3ncc([N+](=O)[O-])c(Nc4ccccc4O)n3)cc2)CC1.O=C(O)C(F)(F)F` [TCMDC-141372], the Selectivity ratio is 0.91.

For `ON=C1CCc2cc(-c3cc(-c4ccc(OC5CCNCC5)cc4)oc3-c3ccncc3)ccc21` [TCMDC-141381], the Selectivity ratio worked out at 25.16.

On to `O=C(CCC1CCCC1)N(Cc1ccc(-c2ccc(CNCCc3ccccc3)cc2)cc1)C1CCCNC1.O=C(O)C(F)(F)F` (stereo not shown) [TCMDC-141444], for which the Selectivity ratio turned out to be 2.62. With `O=C(Nc1ccc(Cl)cc1)c1cc(Cl)cc2nc(C(F)(F)F)[nH]c12` [TCMDC-141586], the Selectivity ratio is given as 1.66. Still for that read-out and setting: the same measure for `CN1CCCC1CCNc1ncc2c(-c3ccc(NC(=O)Nc4cc(C(F)(F)F)ccc4F)c(F)c3)nn(C)c2n1.O=C(O)C(F)(F)F` (stereo not shown) [TCMDC-141610]: 3.14.

Take `CN1CCN(CCCNc2ncc3c(-c4ccc(NC(=O)Nc5cc(C(F)(F)F)ccc5F)c(F)c4)nn(C)c3n2)CC1.O=C(O)C(F)(F)F` [TCMDC-141611]: the Selectivity ratio was 5.61. Consider `Cc1ccc(Cn2nc(Cl)c(N3CCCNCC3)cc2=O)cc1NC(=O)Nc1ccc(-c2ccccc2)cc1.O=C(O)C(F)(F)F` [TCMDC-141697], for which the Selectivity ratio is recorded as 7.30. On the same count and under the same terms, the result for `Cc1c(Cn2nc(Cl)c(N3CCNCC3)cc2=O)cccc1NC(=O)Nc1ccc(-c2ccccc2)cc1.O=C(O)C(F)(F)F` [TCMDC-141699] reads 0.86; that for `Cl.O=S(=O)(Nc1cc2c(cc1OCCCN1CCCCC1)CCNCC2)c1ccc(-c2ccc(Cl)cc2)cc1` [TCMDC-141753], 2.18.

For the molecule `CN1CCc2cc(NS(=O)(=O)c3ccc(-c4ccc(Cl)cc4)cc3)c(OCCCN3CCCCC3)cc2CC1.Cl` [TCMDC-141754], the Selectivity ratio is given as 2.30. In the case of `Cc1cc(F)ccc1-c1nc(NCCCNCCc2ccccc2)nc2c1ccc(=O)n2-c1c(F)cccc1F.O=C(O)C(F)(F)F` [TCMDC-141804], the Selectivity ratio is given as 3.49.

`Cc1ccc(Cn2ncc(N3CCCNCC3)c(Cl)c2=O)cc1NC(=O)Nc1ccc(-c2ccccc2)cc1` [TCMDC-141924]: the Selectivity ratio stood at 4.53. With `Cc1c(Cn2ncc(N3CCC(N)CC3)c(Cl)c2=O)cccc1NC(=O)Nc1ccc(-c2ccccc2)cc1.O=C(O)C(F)(F)F` [TCMDC-141931], the Selectivity ratio turned out to be 20.98. Regarding `O=C(O)CCSSc1cccc[n+]1[O-]` [TCMDC-141973], the Selectivity ratio was determined as 487.84. Consider `Nc1nc(N)c2cc(NC(=O)c3ccc(Cl)c(Cl)c3)ccc2n1` [TCMDC-141982], for which the Selectivity ratio worked out at 1.35. On the same count and under the same terms, the result for `Cl.OC(CNCCCCCCNCC(O)c1ccc(Cl)c(Cl)c1)c1ccc(Cl)c(Cl)c1` (stereo not shown) [TCMDC-141987] reads 4.74; that for `Cl.N=C1C=C(N)C(=O)c2ccccc21` [TCMDC-141992], 0.0437; that for `CCn1c2ccccc2c2cc(C=NN=c3cc(C)[nH]c4ccccc34)ccc21` [TCMDC-142186], 1.40. In the case of `CCOc1ccc2c(=NN=Cc3cc(OC)c(OC)cc3OC)cc(C)[nH]c2c1` [TCMDC-142207], the Selectivity ratio came out at 9.97. With `Cc1c(N=O)cc(C(C)(C)C)c(O)c1C(=O)Nc1ccc([N+](=O)[O-])cc1Cl` [TCMDC-142233], the Selectivity ratio is listed as 1.51. The same measure, in the same setting: the result for `CN(C)CCN1CCN(CCCN2c3ccccc3Sc3ccc(C(F)(F)F)cc32)CC1.Cl` [TCMDC-142257] reads 14.77. Turning to `Cl.Nc1c(I)cc(C(=O)Nc2ccc3nc4c(c(N)c3c2)CCCC4)cc1I` [TCMDC-142289], the Selectivity ratio is 5.83.

With `O=c1c(NCCCN(Cc2ccc(F)cc2)c2ccccn2)c(NCc2cccnc2)c1=O` [TCMDC-142311], the Selectivity ratio is reported as more than 277.78.

The same series, now with this note: HepG2 TOX50 vs Pf FGAA IC50.
For the molecule `CN(CCCCN)Cc1ccc(-c2ccc(Cl)cc2)cc1` [TCMDC-140123], the Selectivity ratio is on record as 2.25. In the case of `Nc1cc2c(C3CCN(CC4CCN(C(=O)/C=C/c5ccc(Cl)c(Cl)c5)CC4)CC3)c[nH]c2cn1` [TCMDC-140133], the Selectivity ratio was determined as 3.16. `COc1ccc(-c2ccccc2)cc1NC(=S)NC1CCC(CN2CCC(c3c[nH]c4ccccc34)CC2)CC1` (stereo not shown) [TCMDC-140182]: the Selectivity ratio came out at 3.33. As to `CC(C)(CN)c1nc(-c2ccc(Cl)c(O)c2)c(-c2ccncc2)[nH]1.Cl` [TCMDC-140369], the Selectivity ratio is 2.31.

As for `CCN(CC)CCN(Cc1ccc(-c2ccc(Cl)cc2)cc1)C(=O)Cn1cc(CN(C)C)c(=O)nc1SCc1ccc(F)cc1` [TCMDC-140406], the Selectivity ratio is listed as 4.77. Still for that read-out and setting: the same measure for `CN1CCN(CCCNCc2ccccc2-c2cccc(CNCc3ccc4c(c3)OCO4)c2)CC1.O=C(O)C(F)(F)F` [TCMDC-140476]: 0.92.

In the case of `CN1CCN(CCCN(Cc2cccc(-c3ccc(CNC4CCCC4)cc3)c2)C(=O)/C=C/c2ccccc2)CC1.O=C(O)C(F)(F)F` [TCMDC-140544], the Selectivity ratio was 5.67. As for `CC(C)(C)CNCC(C)(C)c1nc(-c2ccc(Cl)c(O)c2)c(-c2ccncc2)[nH]1.Cl` [TCMDC-140549], the Selectivity ratio came out at 11.51. For `CN1CCN(CCCN(Cc2cccc(-c3ccc(CNCCc4ccccc4)cc3)c2)C(=O)c2cccs2)CC1.O=C(O)C(F)(F)F` [TCMDC-140568], the Selectivity ratio was found to be 3.50. In the case of `CN1CCN(CCCNCc2cccc(-c3ccc(CNCCc4ccccc4)cc3)c2)CC1` [TCMDC-140643], the Selectivity ratio was determined as 4.15. Still for that read-out and setting: the same measure for `COc1cc(NCCCNCc2cn(Cc3cc(Br)cc(Br)c3)c3ccccc23)nc2ccccc12` [TCMDC-140677]: 4.58; for `CC(C)(CN)c1nc(-c2ccc(Br)c(O)c2)c(-c2ccncc2)[nH]1.Cl` [TCMDC-140680]: 54.47; for `N=C(N)Nc1nc(-c2ccc(NCc3ccc(CNc4cccc(-c5csc(NC(=N)N)n5)c4)cc3)cc2)cs1` [TCMDC-140699]: 5.34. Consider `CN1CCC=C(C(=O)NCC(C)(C)c2nc(-c3ccc(Cl)c(O)c3)c(-c3ccncc3)[nH]2)C1.Cl` [TCMDC-140700], for which the Selectivity ratio is 6.98. For the molecule `CN(C)CCCOc1ccc(CN2CCC(c3c[nH]c4ccc(NCC5CCCCC5)cc34)CC2)cc1.O=C(O)C(F)(F)F` [TCMDC-140737], the Selectivity ratio is reported as 9.76. Same read-out and setting: the same measure for `CCN(CC)CCN(Cc1ccc(-c2ccc(C(F)(F)F)cc2)cc1)C(=O)Cn1cc(Cc2cnn(C)c2)c(=O)nc1/C=C/c1ccc(F)cc1.O=C(O)C(O)C(O)C(=O)O` [TCMDC-140741]: 11.45; for `CN(C)CCOc1ccc(NC(=O)NC(C)(C)c2nc(-c3ccc(Cl)c(O)c3)c(-c3ccncc3)[nH]2)cc1.Cl` [TCMDC-140744]: 19.59; for `CNCC(C)(C)c1nc(-c2ccc(Cl)c(O)c2)c(-c2ccncc2)[nH]1.Cl` [TCMDC-140762]: 15.32. With `CC(C)(C)c1ccc(CNC(=O)/C=C/c2ccc(CNC3CCNCC3)cc2)cc1` [TCMDC-140773], the Selectivity ratio is recorded as 4.94. The same measure, in the same setting: the same measure for `CC(C)(C)c1ccc(CNC(=O)c2cc(CNC3CCNCC3)ccc2O)cc1` [TCMDC-140775]: 6.99; for `CC(C)(C)c1ccc(CNC(=O)c2ccc(CNC3CCC(N)CC3)s2)cc1` (stereo not shown) [TCMDC-140777]: 3.67.
